PubChem BioAssay AID2778 (National Center for Advancing Translational Sciences (NCATS), 2010)
This list was built around the results that the source calls inconclusive (neither active nor inactive); the mix of calls is not that of the screen. Where the call is inconclusive, the potency comes from a doubtful curve fit. Activity calls are given as the source filed them. Calls follow the shape of the dose curve; as a rule, active = well fitted inhibition curve with a large enough effect; inconclusive = small, poorly fitted or top-dose-only effect, or effect the other way; inactive = flat fitted curve, though single readings scatter.

By UniProt entry, the sequences of proteins in these tests, tags left out.
UniProt O00255, whole entry, looked up: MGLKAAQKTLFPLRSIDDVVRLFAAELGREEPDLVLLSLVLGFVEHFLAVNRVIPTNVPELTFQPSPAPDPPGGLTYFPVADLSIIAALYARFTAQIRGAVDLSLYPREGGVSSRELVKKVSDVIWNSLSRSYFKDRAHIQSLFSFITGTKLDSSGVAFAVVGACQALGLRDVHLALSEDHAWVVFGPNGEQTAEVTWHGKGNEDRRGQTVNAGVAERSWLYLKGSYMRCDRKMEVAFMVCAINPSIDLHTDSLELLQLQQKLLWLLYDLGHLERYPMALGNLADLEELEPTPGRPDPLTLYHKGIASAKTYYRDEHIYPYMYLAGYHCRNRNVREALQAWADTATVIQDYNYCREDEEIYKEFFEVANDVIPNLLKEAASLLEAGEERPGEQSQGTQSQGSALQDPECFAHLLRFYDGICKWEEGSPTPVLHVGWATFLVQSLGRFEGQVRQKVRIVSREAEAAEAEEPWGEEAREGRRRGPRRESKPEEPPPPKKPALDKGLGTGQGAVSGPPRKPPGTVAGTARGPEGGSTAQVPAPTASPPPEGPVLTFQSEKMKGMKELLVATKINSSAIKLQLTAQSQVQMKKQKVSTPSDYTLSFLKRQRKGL

target: Menin (Homo sapiens) (UniProt O00255); experiment: Confirmation of Inhibitors Targeting the Menin-MLL Interaction in MLL Related Leukemias: Confirmation in an HTRF (commercial TR-FRET) Assay using His-tagged menin and biotin-labeled MLL peptide; settings: His-menin / biotin-MLL peptide binding
Summary of the method: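 HTRF: His6-menin (200 nM) and biotin-MLL-w.t. peptide (80 nM) preincubated 15 min, then compounds 1 hr at ambient, before Eu-cryptate anti-His (3.5 nM) and streptavidin-XL665 (10 nM) for 1 h; 50 mM Tris-HCl pH 7.5, 50 mM NaCl, 1 mM DTT, BSA.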
Potency is read from the fitted curve at half-maximal effect.

| SMILES | Potency |
| --- | --- |
| O=C(COC(=O)c1ccc(NS(=O)(=O)c2cccs2)cc1)Nc1nc2c(F)c(F)c(F)cc2s1 | active: 39.8 µM |
| COc1ccc(CN2CCC(Cc3ccccc3)CC2)c(C)c1C | inactive |
| COc1cc2cc3c4cc(OC)c(OC)cc4cc[n+]3c(C)c2cc1OC | inconclusive: 178 µM [activator, partial curve] |
| CNC[C@H](CC1CCCCC1)NC[C@H](Cc1ccccc1)NCCC12CC3CC(CC(C3)C1)C2 | active: 251 µM |
| COc1ccccc1C(=O)Nc1ccccc1SC(=O)c1ccccc1OC | inconclusive: 794 µM [inhibitor, single point] |
| CC(=O)NC1C(=O)N(CCN2CCOCC2)c2ccc(C)cc21 (stereo not drawn) | inconclusive: 89.1 µM [inhibitor, partial curve] |
| COc1ccccc1NS(=O)(=O)c1cc(NC(=O)Nc2ccc(Cl)cc2Cl)ccc1N1CCCCC1 | inconclusive: 56.2 µM [inhibitor, partial curve] |
| C[C@@H]1CN(C(=O)c2nc3ccc(Cl)cn3c2CNCC[C@@H]2C[C@@H]3C=C[C@H]2C3)C[C@H](C)O1 | inactive |
| CN1CCN(CC(=O)c2ccccc2F)CC1 | inactive |
| O=C1C(=O)c2ncccc2-c2cccnc21 | inactive |
| O=C(NCC1CCCO1)c1ccc(OC2CCN(C(=O)C3CC3)CC2)cc1 (stereo not drawn) | inactive |
| C[C@H](NC(=O)c1cc2c(cn1)[nH]c1ccccc12)C(=O)O | active: 79.4 µM |
| Cc1ccc[n+](-c2nc([O-])sc2/C=N/Nc2ccc([N+](=O)[O-])cc2)c1 | inactive |
| COc1cc(/C=C2/C(=O)N(c3ccc(Br)cc3)N=C2C)cc(OC)c1OC | inconclusive: 1260 µM [inhibitor, partial curve] |
| CCC(c1nnnn1Cc1ccc(F)cc1)N1CCN(C2CCCCC2)CC1 (stereo not drawn) | inconclusive: 79.4 µM [inhibitor, partial curve] |
| CC(=O)Nc1ccc(-c2cc3ccccc3o2)cc1 | inconclusive: 126 µM [inhibitor, single point] |
| CCOC(=O)Cn1cnc2scc(-c3ccc(C)c(C)c3)c2c1=O | inactive |
| CC1CCCN(S(=O)(=O)c2ccc(C(=O)Nc3ccccc3-c3nc4ccccc4[nH]3)cc2)C1 (stereo not drawn) | inconclusive: 50.1 µM [inhibitor, partial curve] |
| O=C1C(Cl)=C(NC(=O)c2ccccc2)C(=O)C(Cl)=C1NC(=O)c1ccccc1 | inactive |
| Cc1ccc(C)n1-c1ccc(N(C)C)cc1 | inactive |
| CCOc1cc(CNCCc2ccc(S(N)(=O)=O)cc2)ccc1OCc1ccccc1 | active: 251 µM |
| CC(C)Cc1cc(C(=O)NCCCN2CCOCC2)no1 | inactive |
| NC(=NCCCCCCN=C(N)/N=C(\N)Nc1ccc(Cl)cc1)/N=C(\N)Nc1ccc(Cl)cc1 | active: 282 µM |
| O=C1C(Cl)=C(NCCN2CCOCC2)C(=O)c2ncccc21 | inconclusive: 158 µM [activator, partial curve] |
| Cc1ccc(NC(=O)C(C)N2C(=O)c3ccccc3C2=O)c(C)c1 (stereo not drawn) | inactive |
| Cc1cc2ncn(-c3ncnc4sc5c(c34)CCC(C)C5)c2cc1C (stereo not drawn) | inconclusive: 794 µM [inhibitor, single point] |
| CC(=O)Nc1ccc(-c2cc(-c3ccc(NC(C)=O)cc3)nc(-c3ccc(NC(C)=O)cc3)n2)cc1 | active: 79.4 µM |
| Cc1nn(-c2ccccc2)c2nc(N)c(C(N)=O)cc12 | inactive |

Three entries out of the list, sorted by count of non-hydrogen atoms, descending:

| SMILES | Potency |
| --- | --- |
| CNC[C@H](CC1CCCCC1)NC[C@H](Cc1ccccc1)NCCC12CC3CC(CC(C3)C1)C2 | active: 251 µM |
| COc1cc2cc3c4cc(OC)c(OC)cc4cc[n+]3c(C)c2cc1OC | inconclusive: 178 µM [activator, partial curve] |
| CN1CCN(CC(=O)c2ccccc2F)CC1 | inactive |
